Results are given in words; binding and its absence hold for the method and conditions named. For part of these data: In cells and extracts the contact can be indirect. Some binding calls cover weakened binding; strength is not graded here.

Test [1] addresses FABP3 with N-terminal His6 tag (UniProt P05413). Put plainly: quartz crystal microbalance (QCM); His6-FABP3 (or FABP3 F16S) immobilised on the gold-plated quartz sensor through Ni-NTA groups; αSyn, its variants or peptides added at varying concentrations; room temperature; 50 mM Tris-HCl pH 7.4; kobs = koff + kon[αSyn], Kd from kon and koff (AQUA 2.0); both purified.
Test [2] deals with FABP3-mCherry (UniProt P05413). As to the kind of experiment: FRET or BRET; competition: 50 μM synthetic αSynP130-140 added to the culture of N2a cells co-expressing GFP-αSyn and FABP3-mCherry; loss of the FRET signal; only the binder purified. In general terms: Bioluminescence resonance energy transfer reports proximity on the nanometre scale.

B1: αSynP2-10 (peptide)
peptide: DVFMKGLSKA
For the molecule B1, the binding entry in test [1] is “no binding”.

B2: αSynP130-140 (peptide)
peptide: EEGYQDYEPEA
B2: the binding entry in test [2] was “binds”.

B3: αSynP73-96 (peptide)
peptide: GVTAVAQKTVEGAGSIAAATGFVK
For B3, the binding entry in test [1] is reported as “no binding”.

Values taken from PMC8131325.
